For at least one compound, name, drawing or mass did not settle the structure.
System: 4T1.2 mammary tumor cells
Test: EdU proliferation assay
Assay type: cell-based, mouse
Conditions: Hsp90 inhibition
Procedure: EdU assay. Approximately 2,000 cells were seeded in 96-well plates on day 1. CM was added on day 2 and cellular proliferation was examined using a fluorescence-based cell proliferation kit (CLICK-IT™ EDU ALEXA FLUOR™ 488 Imaging Kit; Thermo-Fisher, Waltham, MA, USA) on day 4. After fluorescent labeling, the number of fluorescently labeled cells was counted and the ratio to the total number of cells was determined.
In vitro assays. Cellular viability was examined using an MTT assay (Invitrogen, Carlsbad, CA, USA) with the procedure previously described, as well as an EdU assay with a fluorescence-based cell proliferation kit (Thermo-Fisher, Waltham, MA, USA). The recombinant proteins employed included Filamin A, Pkm, Pdia3, Tpm4, Anxa2, Eef1a1, Cts1, Nme2, Dcn, Calr, Aldoa, Calm1, Tpm3, Ppib, Myh9, Ywhae, Hspa5, Hsp90aa1 (MBS962910, MBS8249600, MBS2010131, MBS145304, MBS2009095, MBS2033168, MBS143355, MBS145412, MBS2557309, MBS2009125, MBS8248528, MBS2018713, MBS144696, MBS2009092, MBS717396, MBS143242, MBS806904, MBS142709; MyBioSource, San Diego, CA, USA), Actin Gamma 1, Actn4, Hspa8, Vimentin (H00000071-P01, H00000081-P01, NBP1-30278, NBP2-35139; Novus, Littleton, CO, USA), and Hsp90ab1 (OPCA05157; Aviva system biology, San Diego, CA, USA). […]

C=CCNC1=C2C[C@@H](C)C[C@H](OC)[C@H](O)[C@@H](C)/C=C(\C)[C@H](OC(N)=O)[C@@H](OC)/C=C\C=C(/C)C(=O)NC(=CC1=O)C2=O [Tanespimycin, reference compound]
tumor-suppressing capability of Hsp90ab1 (MSC CM-driven reduction in proliferation and migration of 4T1.2 cells): blocked

— US20240165165A1, “PHARMACEUTICAL COMPOSITIONS AND THEIR METHODS OF USE” (The Trustees of Indiana University, priority 2021, published 2024)
